The text below walks through data of patent US4342827A, “Production of enzymes” (Public Health Laboratory Service, Center for Applied …, priority 1978, dated 1982).

A short description of this series: Blank: dihydroxyacetone without enzyme, reduction of NAD in different buffers and pH. The conditions noted are these: 50 μl 0.5M, no enzyme.

For `O=C(CO)CO` [dihydroxyacetone], the ΔOD340 reads like this: (carbonate/bicarbonate buffer, pH 8) 0; (carbonate/bicarbonate buffer, pH 8.5) 0.31; (carbonate/bicarbonate buffer, pH 9) 0.36; (carbonate/bicarbonate buffer, pH 9.5) 0.94; (phosphate buffer, pH 8) 0; (phosphate buffer, pH 8.5) 0.17. In addition, the ΔOD340 runs as follows: (phosphate buffer, pH 9) 0.34; (phosphate buffer, pH 9.5) 0.63; (triethanolamine/HCl buffer, pH 8) 0; (triethanolamine/HCl buffer, pH 8.5) 0.03; (triethanolamine/HCl buffer, pH 9) 0.21; (triethanolamine/HCl buffer, pH 9.5) 0.48.
